Laboratory results as given in patent US20030157554A1.

The chains behind the UniProt entries cited, without tags or fusion partners. Where a name states a change or a piece, a line headed by the entry shows the natural chain unless it says otherwise. Residues count along the entry.
UniProt P16083: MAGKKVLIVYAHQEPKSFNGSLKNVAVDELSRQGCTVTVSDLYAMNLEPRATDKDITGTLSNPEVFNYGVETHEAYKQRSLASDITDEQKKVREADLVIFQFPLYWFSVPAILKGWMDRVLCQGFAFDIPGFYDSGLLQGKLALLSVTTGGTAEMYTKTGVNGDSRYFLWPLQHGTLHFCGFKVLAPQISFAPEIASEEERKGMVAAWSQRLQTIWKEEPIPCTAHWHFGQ
UniProt Q93050, residues 1-300: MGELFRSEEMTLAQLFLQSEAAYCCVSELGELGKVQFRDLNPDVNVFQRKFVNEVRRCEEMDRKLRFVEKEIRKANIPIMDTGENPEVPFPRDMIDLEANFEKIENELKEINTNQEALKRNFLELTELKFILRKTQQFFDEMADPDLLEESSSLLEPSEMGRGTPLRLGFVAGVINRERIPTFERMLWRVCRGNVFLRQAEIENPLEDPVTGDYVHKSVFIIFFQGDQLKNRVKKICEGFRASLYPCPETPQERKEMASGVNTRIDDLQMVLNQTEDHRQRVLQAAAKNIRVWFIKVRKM

Key:
[1] = molecular target: T1, FHOS (Genbank ID: AF113615) (human) (UniProt Q9Y613); test: Y2H 1x1 mating, binder AD fusion, target BD fusion
T1 sequence (looked up): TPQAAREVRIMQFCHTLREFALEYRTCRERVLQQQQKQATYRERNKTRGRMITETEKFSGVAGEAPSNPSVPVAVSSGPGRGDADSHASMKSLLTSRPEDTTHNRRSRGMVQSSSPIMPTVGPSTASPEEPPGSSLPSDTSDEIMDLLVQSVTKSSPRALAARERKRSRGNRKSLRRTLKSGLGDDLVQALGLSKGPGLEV

[2] = molecular target: T2, S100A9 (Genbank ID: M26311) (human) (UniProt P06702); test: Y2H 1x1 mating, binder AD fusion, target BD fusion
T2 sequence (looked up): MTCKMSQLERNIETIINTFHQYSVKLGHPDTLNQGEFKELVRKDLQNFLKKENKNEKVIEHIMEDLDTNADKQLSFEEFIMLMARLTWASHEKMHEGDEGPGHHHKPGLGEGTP

S100B-1 (human) [3] = molecular target: T3, S100B-1 (human) (UniProt P04271); test: Y2H 1x1 mating, binder AD fusion, target BD fusion
T3 sequence (looked up): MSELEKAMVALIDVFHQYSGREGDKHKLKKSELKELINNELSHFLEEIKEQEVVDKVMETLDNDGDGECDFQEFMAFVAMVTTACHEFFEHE

S100B-2 (human) [4] = molecular target: T4, S100B-2 (human) (UniProt P04271); test: Y2H 1x1 mating, binder AD fusion, target BD fusion
T4 sequence (looked up): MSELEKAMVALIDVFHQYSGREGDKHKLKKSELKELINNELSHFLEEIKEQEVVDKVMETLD

S100B-1 (human) [5] = molecular target: T3, S100B-1 (human); test: Y2H 1x1 mating, binder BD fusion, target AD fusion
S100B-2 (human) [6] = molecular target: T4, S100B-2 (human); test: Y2H 1x1 mating, binder BD fusion, target AD fusion
[7] = molecular target: NQO2 (Genbank ID: J02888) (human) (UniProt P16083); test: Y2H 1x1 mating, binder AD fusion, target BD fusion
[8] = molecular target: ATPase (ATP6N1) (Genbank ID: u73006) (human) (UniProt Q93050); test: Y2H 1x1 mating, binder AD fusion, target BD fusion

| binding [1] | binding [2] | binding (S100B-1 (human) [3]) | binding (S100B-2 (human) [4]) | binding (S100B-1 (human) [5]) | binding (S100B-2 (human) [6]) | binding [7] | binding [8] | Substance |
| --- | --- | --- | --- | --- | --- | --- | --- | --- |
| no binding | no binding | no binding | binds | no binding | binds |  |  | Fibrinogen (Genbank ID: M58569), S100B interactor (human) |
|  |  |  |  |  |  | no binding |  | ATPase (ATP6N1) (Genbank ID: u73006) (from UniProt Q93050 1-300) |
| no binding | no binding | no binding |  | no binding |  |  | no binding | NQO2 (Genbank ID: J02888) (from UniProt P16083) (enzyme) |

These are yes or no findings as the source states them, for the method shown. For part of these data: Binding can be weak; no strength is given.
